Laboratory results: PubChem BioAssay AID1259291 (Sanger Institute, 2017)
Screen: 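Genes needed for HT29 colorectal cancer cell survival or for sensitivity to drugs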 (primary screen). System: HT29 human colorectal cancer cells. Reagents: siRNA pool against human genes. Conditions: anchor drugs added a day after transfection: BYL719 at 1 µM, cetuximab at 5 µg/ml or trametinib at 10 nM, or DMSO vehicle alone. Measured: 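Cell viability as a fraction of the non-targeting pool, mean of replicates, robust z-scores from control wells; synergy scores for BYL719 (1 µM), cetuximab (5 µg/ml), trametinib (10 nM)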. Reading the numbers: robust z-score, knock-down alone and viability, knock-down alone: higher = more viable cells; synergy score with BYL719: higher = stronger synergistic killing with drug. Hit rule: 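a knock-down alone scoring under -3 on robust z-score is called essential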. Calls: active = essential (knock-down alone); inactive = no change alone.
The deposit covers 794 reagents; shown is a random part of them. 15 of all reagents (1.9%) were called active. 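Calls rest on knock-down alone; drug synergy scores do not affect them; drugs added a day post-transfection, DMSO vehicle as comparison.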 Viability is capped at 1. Not all columns of the deposit are shown. Not given: the amount of reagent, the time to read-out.

| gene knocked down | robust z-score, knock-down alone | viability, knock-down alone (fraction of control) | synergy score with BYL719 | activity call |
| --- | --- | --- | --- | --- |
| CUL1 | -1.38 | 0.88 | -0.0248 | inactive |
| AK5 | 0.552 | 1 | 0.00951 | inactive |
| RIOK1 | 0.552 | 1 | -0.0275 | inactive |
| TYRO3 | 0.552 | 1 | 0.064 | inactive |
| CSNK1G1 | 0.552 | 1 | -0.108 | inactive |
| EPHA8 | 0.552 | 1 | 0.0112 | inactive |
| ULK3 | 0.552 | 1 | 0.0251 | inactive |
| PEAK1 | 0.552 | 1 | 0.0241 | inactive |
| KRAS | -1.13 | 0.896 | -0.0444 | inactive |
| PIP5K1C | 0.552 | 1 | 0.0256 | inactive |
| PNCK | 0.552 | 1 | -0.124 | inactive |
| RBKS | 0.552 | 1 | -0.0955 | inactive |
| CDK1 | 0.552 | 1 | -0.0982 | inactive |
| CAMK2B | 0.552 | 1 | 0.025 | inactive |
| MAP3K8 | -1.34 | 0.883 | -0.0413 | inactive |
| SGK2 | 0.452 | 0.994 | 0.183 | inactive |
| FCSK | 0.158 | 0.976 | -0.0271 | inactive |
| ROCK1 | 0.552 | 1 | -0.117 | inactive |
| MAP2K5 | 0.552 | 1 | -0.114 | inactive |
| DGKH | 0.552 | 1 | 0.00401 | inactive |
